In US20120046217A1:
These are yes or no findings as the source states them, for the method shown. In cells and extracts the contact can be indirect. Some entries that bind do so weakly or less than the wild type.

The chains behind the UniProt entries cited, without tags or fusion partners. Where a name states a change or a piece, a line headed by the entry shows the natural chain unless it says otherwise. Residues count along the entry.
UniProt P19438, residues 30-455: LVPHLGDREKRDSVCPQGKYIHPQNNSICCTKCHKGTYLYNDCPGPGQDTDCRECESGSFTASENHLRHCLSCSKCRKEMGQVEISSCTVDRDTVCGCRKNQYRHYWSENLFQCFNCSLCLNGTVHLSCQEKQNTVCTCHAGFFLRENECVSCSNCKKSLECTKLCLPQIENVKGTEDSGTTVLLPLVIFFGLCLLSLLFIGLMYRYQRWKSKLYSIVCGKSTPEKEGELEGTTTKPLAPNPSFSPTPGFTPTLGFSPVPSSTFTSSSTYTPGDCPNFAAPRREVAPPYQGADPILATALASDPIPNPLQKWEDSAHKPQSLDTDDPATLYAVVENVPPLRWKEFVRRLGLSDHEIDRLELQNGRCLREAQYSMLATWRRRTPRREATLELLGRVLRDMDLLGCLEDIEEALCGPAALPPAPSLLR
UniProt P24593: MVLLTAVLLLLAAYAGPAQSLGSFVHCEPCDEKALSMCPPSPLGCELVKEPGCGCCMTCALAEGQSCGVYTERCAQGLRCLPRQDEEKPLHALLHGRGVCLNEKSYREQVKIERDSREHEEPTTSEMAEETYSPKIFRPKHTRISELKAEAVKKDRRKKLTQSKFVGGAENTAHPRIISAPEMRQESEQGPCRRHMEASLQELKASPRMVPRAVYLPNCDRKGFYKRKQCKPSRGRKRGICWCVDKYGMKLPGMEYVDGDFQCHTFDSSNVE

Experiments:
[1] = molecular target: Flag-TNFR1 (UniProt P19438); test: co-immunoprecipitation in media (FIG. 7)
[2] = molecular target: Flag-TNFR1 (UniProt P19438); test: co-immunoprecipitation with Flag antibody in conditioned medium of co-transfected HEK293 cells
[3] = molecular target: Flag-TNFR1 (UniProt P19438); test: co-immunoprecipitation with TNFR1 antibody, Western blot with Myc antibody (FIG. 9)

binding [1]	binding [2]	binding [3]	Substance
binds	binds		IGFBP5-Myc-His (from UniProt P24593 21-272) (ligand)
		binds	truncated mutant consisting of an IGFBP5 L-domain (from UniProt P24593 101-188)
